Results are given in words; binding and its absence hold for the method and conditions named. Binding seen in cells or lysates may run through a third protein. Binding can be weak; no strength is given.
target: p85α regulatory subunit of PI3K (human (endogenous in MDA-MB-468)) (UniProt P27986); experiment: co-IP; lysates (1 mg) of MDA-MB-468 cells expressing TRβ1 or mutants, treated without or with T3 (100 nM) for 24 hours; immunoprecipitated with monoclonal anti-p85α antibody, blotted with anti-TRβ1 (J53)

By UniProt entry, the sequences of proteins in these tests, tags left out. Where a name states a change or a piece, a line headed by the entry shows the natural chain unless it says otherwise.
UniProt P27986: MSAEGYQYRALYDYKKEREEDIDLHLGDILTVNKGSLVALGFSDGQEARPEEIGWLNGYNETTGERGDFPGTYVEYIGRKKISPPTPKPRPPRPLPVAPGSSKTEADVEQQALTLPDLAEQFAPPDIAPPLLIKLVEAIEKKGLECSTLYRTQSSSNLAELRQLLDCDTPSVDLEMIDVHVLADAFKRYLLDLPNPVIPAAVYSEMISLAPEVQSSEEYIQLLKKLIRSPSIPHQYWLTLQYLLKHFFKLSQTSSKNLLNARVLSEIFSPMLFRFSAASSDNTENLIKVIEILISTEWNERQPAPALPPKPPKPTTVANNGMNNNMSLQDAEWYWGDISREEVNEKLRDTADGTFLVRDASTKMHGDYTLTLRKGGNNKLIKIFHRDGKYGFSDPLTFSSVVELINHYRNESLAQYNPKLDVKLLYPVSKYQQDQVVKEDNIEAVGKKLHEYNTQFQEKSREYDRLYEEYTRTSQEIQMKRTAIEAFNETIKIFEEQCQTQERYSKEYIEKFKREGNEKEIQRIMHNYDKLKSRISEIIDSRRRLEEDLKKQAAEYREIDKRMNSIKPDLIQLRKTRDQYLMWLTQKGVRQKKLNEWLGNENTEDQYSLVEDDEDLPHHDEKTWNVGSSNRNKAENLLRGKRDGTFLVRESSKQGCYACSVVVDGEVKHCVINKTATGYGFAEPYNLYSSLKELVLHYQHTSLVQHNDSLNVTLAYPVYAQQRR
UniProt P10828: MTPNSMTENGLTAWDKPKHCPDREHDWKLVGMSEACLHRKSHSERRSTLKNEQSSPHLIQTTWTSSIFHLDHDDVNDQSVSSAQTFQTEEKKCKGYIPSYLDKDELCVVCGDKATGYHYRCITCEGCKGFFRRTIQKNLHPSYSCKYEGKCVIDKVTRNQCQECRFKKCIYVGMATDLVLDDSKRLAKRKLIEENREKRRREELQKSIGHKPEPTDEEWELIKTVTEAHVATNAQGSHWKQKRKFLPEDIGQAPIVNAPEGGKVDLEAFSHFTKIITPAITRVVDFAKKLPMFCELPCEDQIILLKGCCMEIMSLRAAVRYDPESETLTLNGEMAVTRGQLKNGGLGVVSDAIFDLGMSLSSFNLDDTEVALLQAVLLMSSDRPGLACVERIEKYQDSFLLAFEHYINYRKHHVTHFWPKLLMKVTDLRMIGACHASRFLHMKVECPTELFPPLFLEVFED

Row | Substance | binding
1 | 3Flag-PV (TRβ1 C-terminal frame-shift mutant PV) (from UniProt P10828) (receptor) | binds
2 | 3Flag-Mkar (TRβ1 C-terminal frame-shift mutant Mkar) (from UniProt P10828) (receptor) | binds
3 | 3Flag-Mdbs (TRβ1 C-terminal frame-shift mutant Mdbs) (from UniProt P10828) (receptor) | binds

— PMC4480739, “Oncogenic mutations of thyroid hormone receptor β” (Oncotarget, 2015)
